Data: PMC5445283, “Selection and characterization of alanine racemase inhibitors against Aeromonas hydrophila” (BMC Microbiology, 2017)

How the values were obtained:
[1] = test system: A. hydrophila Δalr-2; assay type: cell-based, Aeromonas hydrophila; settings: relative to MIC against A. hydrophila
Method: A. hydrophila HBNUAh01 isolated from infected Paralichthys olivaceus and an A. hydrophila alr-2 knockout mutant were used in this study. Escherichia coli BL-21(DE3) cells were used for protein expression. The pET-25b-alr2 plasmid was used for protein expression. The A. hydrophila and E. coli strains were cultured in Luria-Bertani (LB) medium at 30 °C and 37 °C, respectively. For plasmid selection, 0.5 mmol/l ampicillin (AMP, Sigma–Aldrich Inc., USA) was added to the LB medium for experiments with E. coli.
A. hydrophila was cultured for 18 h, washed with PBS (pH 7.2), and adjusted to an OD600 value of 0.5. Next, the culture was diluted tenfold five times, and aliquots were spread on LB agar in triplicate to determine the number of colony-forming units (CFU)/ml.
The minimum inhibitory concentration (MIC) of the chemical compounds against A. hydrophila was determined using the microdilution method in accordance with the guidelines of the Clinical and Laboratory Standards Institute, document M31-A3 [16], following the method described by Dal Pozzo et al.. Compounds were diluted in DMSO at concentrations of 80, 40, 20, or 10 μg/ml. Appropriate controls were included in all tests. DCS is a naturally occurring antibacterial compound that targets alanine racemase involved in peptidoglycan synthesis. […]

[2] = test system: HeLa cells; assay type: cell-based; settings: HeLa TC50 / MIC against A. hydrophila; NC: non calculable
Method: This assay was performed in a 96-well plate format and used HeLa cells. The cell viability was determined using 3-(4,5-dimethyl-2-thiazole)-2,5-diphenyl-2H-tetrazolium bromide (MTT, Sigma-Aldrich). Cells were seeded in culture medium in microplates (4000 cells/well) and incubated at 37 °C for 24 h before drug treatments. […] The cells were exposed to the compounds for 48 h. At the end of the incubation, the cells were exposed to MTT (0.5 mg/ml) at 37 °C for 4 h. The reduced crystals were dissolved in DMSO, and absorbance was detected at 490 nm. The […] were set as zero absorbance. The percentage of cell survival was calculated using the background-corrected absorbance as follows: Cell survival (%) = (ODexperiment/ODcontrol) × 100. The data represent the mean and standard deviation from triplicate determination.

## O=C1C=C2C(=CCOC2O)O1 (stereo not shown) [Compound I-2, Patulin]
[1]
  increase in MIC against A. hydrophila Δalr-2: 4 fold

## O=C(O)Cc1cc(O)ccc1O [Compound I-3, Homogentisic acid]
[2]
  Ti = TC50/MIC (therapeutic index): 1.3

## Oc1ccc(O)cc1 [Compound I-6, Hydroquinone]
[2]
  Ti = TC50/MIC (therapeutic index): 1.54

## N[C@@H]1CON=C1O [DCS, D-cycloserine, reference compound]
[1]
  increase in MIC against A. hydrophila Δalr-2: 2 fold
